The list shows a part of the results.
Key:
Assay in all cases: glycan array binding signal (z-score within array); higher = stronger binding
Details in all cases: glycan notation: IUPAC condensed, linker removed
[1] = biological target: Fuc(b1-3)GlcNAc
Summary of the method: (§1)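 Negative Z-scores can be read as non-binding. The Z-score is calculated within each array and then averaged across arrays of one protein sequence at different concentrations or buffers and across linkers. Arrays, 3228 in all, were curated from the Consortium for Functional Glycomics database and kept only where the protein sequence was available.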

[2] = biological target: Gal(a1-2)Gal
Summary of the method: as §1

[3] = biological target: Gal(a1-3)Gal
Summary of the method: as §1

[4] = biological target: Gal(a1-3)Gal(b1-3)Glc
Summary of the method: as §1

[5] = biological target: Gal(a1-3)Gal(b1-3)GlcNAc
Summary of the method: as §1

[6] = biological target: Gal(a1-3)Gal(b1-4)GlcNAc
Summary of the method: as §1

[7] = biological target: Gal(a1-3)Gal(b1-4)[Fuc(a1-3)]GalNAc
Summary of the method: as §1

[8] = biological target: Gal(a1-3)GlcNAc
Summary of the method: as §1

[9] = biological target: Gal(a1-3)[Gal(a1-4)]Gal(b1-4)GlcNAc
Summary of the method: as §1

[10] = biological target: Gal(a1-4)Gal(b1-4)Gal
Summary of the method: as §1

[11] = biological target: Gal(a1-4)Gal(b1-4)GalNAc
Summary of the method: as §1

[12] = biological target: Gal(a1-4)GlcNAc
Summary of the method: as §1

[13] = biological target: Gal(a1-6)Glc
Summary of the method: as §1

[14] = biological target: Gal(b1-2)Gal
Summary of the method: as §1

[15] = biological target: Gal(b1-3)Gal
Summary of the method: as §1

[16] = biological target: Gal(b1-3)GalNAc
Summary of the method: as §1

[17] = biological target: Gal(b1-3)GalNAc(b1-3)Gal(a1-4)Gal(b1-4)Glc
Summary of the method: as §1

[18] = biological target: Gal(b1-3)GalNAc(b1-3)Gal(b1-4)Glc
Summary of the method: as §1

[19] = biological target: Gal(b1-3)GalNAc(b1-3)Gal(b1-4)GlcNAc
Summary of the method: as §1

[20] = biological target: Gal(b1-3)GalNAc(b1-4)Gal(b1-4)Glc
Summary of the method: as §1

[21] = biological target: Gal(b1-3)GalNAc(b1-4)[Neu5Ac(a2-3)]Gal(b1-4)Glc
Summary of the method: as §1

[22] = biological target: Gal(b1-3)GlcNAc(b1-3)Gal(b1-3)GlcNAc
Summary of the method: as §1

[23] = biological target: Gal(b1-3)[Fuc(a1-4)]GlcNAc
Summary of the method: as §1

[24] = biological target: Gal(b1-3)[Fuc(a1-4)]GlcNAc(b1-3)Gal(b1-3)[Fuc(a1-4)]GlcNAc
Summary of the method: as §1

[25] = biological target: Gal(b1-3)[Fuc(a1-4)]GlcNAc(b1-3)Gal(b1-4)GlcNAc
Summary of the method: as §1

[26] = biological target: Gal(b1-3)[Fuc(a1-4)]GlcNAc(b1-3)Gal(b1-4)[Fuc(a1-3)]GlcNAc
Summary of the method: as §1

[27] = biological target: Gal(b1-3)[GlcNAc(b1-6)]GalNAc
Summary of the method: as §1

[28] = biological target: Gal(b1-3)[GlcNAc(b1-6)]GlcNAc
Summary of the method: as §1

[29] = biological target: Gal(b1-3)[Neu5Ac(a2-6)]GalNAc
Summary of the method: as §1

[30] = biological target: Gal(b1-3)[Neu5Ac(a2-6)]GlcNAc
Summary of the method: as §1

[31] = biological target: Gal(b1-3)[Neu5Ac(a2-6)]GlcNAc(a1-4)Gal(b1-4)Glc
Summary of the method: as §1

[32] = biological target: Gal(b1-3)[Neu5Ac(b2-6)]GlcNAc
Summary of the method: as §1

[33] = biological target: Gal(b1-4)GalNAc(a1-3)[Fuc(a1-2)]Gal(b1-4)GlcNAc
Summary of the method: as §1

[34] = biological target: Gal(b1-4)GalNAc(b1-3)[Fuc(a1-2)]Gal(b1-4)GlcNAc
Summary of the method: as §1

[35] = biological target: Gal(b1-4)Glc
Summary of the method: as §1

[36] = biological target: Gal(b1-4)Glc6S
Summary of the method: as §1

[37] = biological target: Gal(b1-4)GlcNAc
Summary of the method: as §1

[38] = biological target: Gal(b1-4)GlcNAc(b1-2)Man(a1-3)[Gal(b1-4)GlcNAc(b1-2)Man(a1-6)]Man(b1-4)GlcNAc(b1-4)GlcNAc
Summary of the method: as §1

[39] = biological target: Gal(b1-4)GlcNAc(b1-3)Gal(b1-3)GlcNAc
Summary of the method: as §1

[40] = biological target: Gal(b1-4)GlcNAc(b1-3)Gal(b1-4)Glc
Summary of the method: as §1

[41] = biological target: Gal(b1-4)GlcNAc(b1-3)Gal(b1-4)GlcNAc
Summary of the method: as §1

[42] = biological target: Gal(b1-4)GlcNAc(b1-3)Gal(b1-4)GlcNAc(b1-3)Gal(b1-4)GlcNAc
Summary of the method: as §1

[43] = biological target: Gal(b1-4)GlcNAc(b1-3)Gal(b1-4)[Fuc(a1-3)]GlcNAc(b1-3)Gal(b1-4)[Fuc(a1-3)]GlcNAc
Summary of the method: as §1

[44] = biological target: Gal(b1-4)GlcNAc(b1-3)GalNAc
Summary of the method: as §1

[45] = biological target: Gal(b1-4)GlcNAc(b1-3)[Gal(b1-4)GlcNAc(b1-6)]GalNAc
Summary of the method: as §1

B1: C-Reactive Protein (Homo sapiens), P02741 (protein)
chain: MEKLLCFLVLTSLSHAFGQTDMSRKAFVFPKESDTSYVSLKAPLTKPLKAFTVCLHFYTELSSTRGYSIFSYATKRQDNEILIFWSKDIGYSFTVGGSEILFEVPEVTVAPVHICTSWESASGIVEFWVDGKPRVRKSLKKGYTVGAEASIILGQEQDSFGGNFEGSQSLVGDIGNVNMWDFVLSPDEINTIYLGGPFSPNVLNWRALKYEVQGEVFTKPQLWP
[1]
  glycan array binding signal (z-score): -0.437
[2]
  glycan array binding signal (z-score): -0.469
[3]
  glycan array binding signal (z-score): -0.595
[4]
  glycan array binding signal (z-score): 0.459
[5]
  glycan array binding signal (z-score): -0.59
[6]
  glycan array binding signal (z-score): -0.692
[7]
  glycan array binding signal (z-score): -0.642
[8]
  glycan array binding signal (z-score): -0.563
[9]
  glycan array binding signal (z-score): -0.49
[10]
  glycan array binding signal (z-score): -0.603
[11]
  glycan array binding signal (z-score): -0.598
[12]
  glycan array binding signal (z-score): -0.071
[13]
  glycan array binding signal (z-score): -0.456
[14]
  glycan array binding signal (z-score): -0.182
[15]
  glycan array binding signal (z-score): -0.554
[16]
  glycan array binding signal (z-score): -0.176
[17]
  glycan array binding signal (z-score): -0.576
[18]
  glycan array binding signal (z-score): -0.33
[19]
  glycan array binding signal (z-score): -0.465
[20]
  glycan array binding signal (z-score): -0.504
[21]
  glycan array binding signal (z-score): -0.315
[22]
  glycan array binding signal (z-score): 1.62
[23]
  glycan array binding signal (z-score): -0.611
[24]
  glycan array binding signal (z-score): 0.76
[25]
  glycan array binding signal (z-score): -0.4
[26]
  glycan array binding signal (z-score): -0.468
[27]
  glycan array binding signal (z-score): 0.493
[28]
  glycan array binding signal (z-score): -0.424
[29]
  glycan array binding signal (z-score): -0.455
[30]
  glycan array binding signal (z-score): -0.366
[31]
  glycan array binding signal (z-score): -0.13
[32]
  glycan array binding signal (z-score): -0.64
[33]
  glycan array binding signal (z-score): -0.454
[34]
  glycan array binding signal (z-score): -0.521
[35]
  glycan array binding signal (z-score): -0.466
[36]
  glycan array binding signal (z-score): 0.381
[37]
  glycan array binding signal (z-score): 0.3
[38]
  glycan array binding signal (z-score): -0.647
[39]
  glycan array binding signal (z-score): 0.715
[40]
  glycan array binding signal (z-score): 0.824
[41]
  glycan array binding signal (z-score): 0.622
[42]
  glycan array binding signal (z-score): 0.148
[43]
  glycan array binding signal (z-score): 0.095
[44]
  glycan array binding signal (z-score): 0.197
[45]
  glycan array binding signal (z-score): 0.275

Reference: the supplement of paper PMC8728848
